# According to PubChem BioAssay AID504834 (National Center for Advancing Translational Sciences (NCATS), 2011):
# Among all 320,000 compounds or so, about 22,000 (6.9%) were called active. The inconclusive results got no clear call from the source; some entries with a clear call stand among them for comparison. Calls follow the shape of the dose curve; as a rule, active = well fitted inhibition curve with a large enough effect; inconclusive = small, poorly fitted or top-dose-only effect, or another doubt; inactive = no such curve, though single readings can be large or run the other way. Potencies of inconclusive entries are doubtful fits and often do not repeat.
# Assay: Primary qHTS for delayed death inhibitors of the malarial parasite plastid, 96 hour incubation
# Settings: P. falciparum luciferase reporter growth; series mostly up to 28.7 µM
# Summary of the method: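 Two-generation exposure (96 h) targets delayed-death phenotype. Reporter parasites carrying integrated firefly luciferase, in red cells at 2% hematocrit and 0.05% parasitemia final, kept at 37 C, 5% CO2; luminescence loss indicates inhibition.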
# Potency is read from the fitted curve at half-maximal effect.
row,Structure (SMILES),Potency
1,CCN(CC)CCCN(C(=O)c1ccccc1C)c1nc(-c2ccc(OC)cc2)cs1,inactive
2,COc1ccccc1NS(=O)(=O)c1ccc(C(=O)N2CCN(c3ccccc3)CC2)cc1,"inconclusive: 20.8 µM [inhibitor, single point]"
3,CCc1ccc2c(CN3CCN(Cc4ccccc4)CC3)cc(=O)oc2c1,"inconclusive: 18.5 µM [inhibitor, single point]"
4,COc1cccc(C(=O)NN2CC(O)=C(c3nc4ccccc4s3)C2=N)c1,inactive
5,CCOC(=O)c1c(C)[nH]c(C(=O)Nc2ccc(NC(C)=O)cc2)c1C,inactive
6,COc1cc2c(cc1OC)C(C(=O)N(C)Cc1ccccc1)C(c1cccnc1)N(C)C2=O (configuration not stated),active: 3.7 µM
7,CN(C)c1nc(N)nc(-c2cccnc2)n1,"inconclusive: 9.28 µM [inhibitor, single point]"
8,COc1ccc(/C=N/NC(=O)c2cccc(NC(C)=O)c2)c(OC)c1,"inconclusive: 18.5 µM [inhibitor, single point]"
9,C=CCN1C(=O)/C(=C/c2cc(C)n(-c3ccccn3)c2C)C(=O)NC1=S,inactive
10,O=C(Nc1ccccc1)c1cc(S(=O)(=O)NCc2ccncc2)ccc1Cl,active: 11.7 µM
11,CC(=O)NCCn1c(SCc2ccc(C)cc2)nc2ccccc2c1=O,"inconclusive: 9.28 µM [inhibitor, partial curve, poor fit]"
12,Cc1cc(C(=O)N2CCC(CO)(Cc3cccc(C(F)(F)F)c3)CC2)n[nH]1,inactive
13,CCN(CC)c1ccc(/C=N/N2CCOCC2)c(O)c1,inactive
14,COc1ccc(C2C(C(=O)Nc3cc(C)on3)c3ccccc3C(=O)N2C)cc1OC (configuration not stated),"inconclusive: 18.5 µM [inhibitor, single point]"
15,CCc1cc2cc(C)ccc2nc1SCC(=O)NC1CCCC1,inactive
16,COc1ccc(CCNC(=O)CC2SC(=NCc3ccccc3)NC2=O)cc1 (configuration not stated),"inconclusive: 2.62 µM [inhibitor, single point]"
17,Cc1ccc(C[n+]2c(-c3ccc(C)cc3)cc(-c3ccc(C)cc3)cc2-c2ccc(C)cc2)cc1,"inconclusive: 0.586 µM [inhibitor, full curve, poor fit]"
18,OC(COC(c1ccc(F)cc1)c1ccc(F)cc1)CN1CCCC1 (configuration not stated),"inconclusive: 0.104 µM [inhibitor, full curve, poor fit]"
19,Fc1ccc(NC(=S)Nc2cccc3cnccc23)cc1,"inconclusive: 10.4 µM [inhibitor, single point]"
20,Cc1ccc(C)c(N2CCN(CCCNC(=O)CCn3c(=O)c4cccn4c4cccnc43)CC2)c1,"inconclusive: 16.5 µM [inhibitor, single point]"
21,O=C(NCCN1CCOCC1)c1cc2ccccc2o1,"inconclusive: 11.7 µM [inhibitor, single point]"
22,CC1Cc2nc(SCC(=O)Nc3ccc4c(c3)OCO4)n(Cc3ccccc3)c(=O)c2S1 (configuration not stated),inactive
23,COc1ccccc1CNC(=O)CCN=C1NS(=O)(=O)c2ccccc21,"inconclusive: 11.7 µM [inhibitor, partial curve, poor fit]"

row,Structure (SMILES),Potency
1,CCOc1ccc(N(C)S(=O)(=O)c2ccc(C)c(C(=O)OCC(=O)c3c[nH]c4ccccc34)c2)cc1,"inconclusive: 9.28 µM [inhibitor, partial curve, poor fit]"
2,Cc1cccc(-n2c(C)cc(C=C(C#N)C#N)c2C)c1,"inconclusive: 18.5 µM [inhibitor, single point]"
3,CCC(C(=O)OC)(C(=O)OC)c1ccc([N+](=O)[O-])cc1,inactive
4,Cc1cc(OC(C)C(=O)Nc2ccc(S(=O)(=O)Nc3onc(C)c3C)cc2)cc(C)c1Cl (configuration not stated),active: 8.28 µM
5,O=C(COC(=O)CCC(=O)c1cccs1)Nc1cccc(S(=O)(=O)N2CCOCC2)c1,"inconclusive: 2.08 µM [inhibitor, partial curve, poor fit]"
6,O=C1c2ccccc2S(=O)(=O)N1Cc1cc(=O)n2ccsc2n1,active: 13.1 µM
7,COC(=O)CN1C(=O)[C@H]2[C@@H](/C=C/c3ccccc3)N3C(=O)CN(Cc4ccccc4)C(=O)[C@@]3(Cc3ccccc3)[C@H]2C1=O,"inconclusive: 1.17 µM [inhibitor, partial curve]"
8,Cn1nnnc1NCc1ccc(Cl)c(Cl)c1,"inconclusive: 18.5 µM [inhibitor, single point]"
9,O=C(CCCCCl)Nc1c2c(nc3ccccc13)CCC2,"inconclusive: 18.5 µM [inhibitor, single point]"
10,CCOc1cc2nc(-c3ccc(OC)c(OC)c3)nc(N3CC(C)OC(C)C3)c2cc1OC (configuration not stated),"inconclusive: 2.94 µM [inhibitor, partial curve, poor fit]"
11,Cc1ccc(NC(=O)c2cc(NC(=O)CCC(=O)O)ccc2N2CCCCC2)cc1,"inconclusive: 18.5 µM [inhibitor, single point]"
12,O=C(Nc1ccccc1Cl)c1cccc(NC(=O)c2cccs2)c1,"inconclusive: 4.15 µM [inhibitor, partial curve]"
13,Cc1ccc(C)c(OCCC(=O)NNC(=O)c2ccccc2)c1,"inconclusive: 2.62 µM [inhibitor, partial curve, poor fit]"
14,COc1ccc(C(CNC(=O)CSc2ccc(Br)cc2C)N2CCOCC2)cc1 (configuration not stated),"inconclusive: 13.1 µM [inhibitor, single point]"
15,O=[N+]([O-])c1ccccc1Oc1ccc(Cl)c2cccnc12,inactive
16,COc1cc(/C=N/N=C2\CC3CCC2(C)C3(C)C)ccc1O (configuration not stated),"inconclusive: 0.37 µM [inhibitor, full curve, poor fit]"
17,COc1ccc(/C=N\NC(=O)c2ccccc2)cc1COc1ccccc1,active: 11.7 µM
18,COc1ccccc1N1CCN(C(c2cccs2)C(C)NC(=O)C(=O)N2CCOCC2)CC1 (configuration not stated),"inconclusive: 8.28 µM [inhibitor, partial curve, poor fit]"
19,Cc1cc(C)cc(N(C(C)C(=O)NCc2ccc3c(c2)OCO3)S(C)(=O)=O)c1 (configuration not stated),inactive
20,CN(C)CC[C@@](O)(c1ccccc1)c1ccccc1Cl,active: 10.7 µM
21,COc1ccc(CNc2ccc(S(N)(=O)=O)cc2)cc1,"inconclusive: 13.1 µM [inhibitor, partial curve, poor fit]"
22,COc1nc(-c2ccccc2)cc(-c2ccc3c(c2)OCO3)c1C#N,"inconclusive: 18.5 µM [inhibitor, single point]"
23,CCN(CC)C(=O)CSc1nnc(-c2ccccn2)n1Cc1ccccc1,inactive

row,Structure (SMILES),Potency
1,O=C(O)c1ccc2c(c1)S(=O)(=O)c1cc(Cl)ccc1C2=O,inactive
2,CC(C)N(Cc1ccccc1)C(=O)CCS(=O)(=O)c1ccc2c(c1)oc(=O)n2C,"inconclusive: 13.1 µM [inhibitor, single point]"
3,COc1ccc(CNCC(C)NCc2ccc(OC)c(OC)c2)cc1OC (configuration not stated),"inconclusive: 18.5 µM [inhibitor, single point]"
4,COCCn1c(SCC(=O)Nc2ccc(N3CCOCC3)cc2)nc2ccccc21,"inconclusive: 9.28 µM [inhibitor, single point]"
5,Cc1nnc(NC(=O)c2ccc(F)c(S(=O)(=O)N3CCCCC3)c2)s1,"inconclusive: 11.7 µM [inhibitor, single point]"
6,COc1cccc(C(=O)N/N=C(/CCC(=O)O)c2ccccc2)c1,inactive
7,CC(=O)Nc1ccc(Nc2ncc([N+](=O)[O-])c(Nc3ccc(NC(C)=O)cc3)n2)cc1,"inconclusive: 0.522 µM [inhibitor, full curve, poor fit]"
8,COC(=O)C1=C(C)NC(C)=C(C(=O)OC)C1C(=O)OCc1nnc(-c2ccccc2)o1,"inconclusive: 18.5 µM [inhibitor, single point]"
9,Cn1cc(S(=O)(=O)N2CCOCC2)cc1C(=O)NCc1ccc(Cl)cc1,"inconclusive: 2.94 µM [inhibitor, partial curve, poor fit]"
10,Cc1ccc(-n2cc(CNCCCN3CCCC3=O)c(-c3ccc(F)cc3)n2)cc1,"inconclusive: 0.0828 µM [inhibitor, full curve, poor fit]"
11,Cc1ccc(Cl)cc1N1CCN(C(=O)c2noc(C(C)C)c2[N+](=O)[O-])CC1,"inconclusive: 20.8 µM [inhibitor, single point]"
12,COCCN(C(=O)CSc1nnc(-c2ccc(Cl)cc2)o1)c1c(N)n(CC(C)C)c(=O)[nH]c1=O,"inconclusive: 9.28 µM [inhibitor, partial curve, poor fit]"
13,COc1ccccc1OCc1cc(C(=O)N2CCCC(OCc3cccnc3)C2)no1 (configuration not stated),active: 11.7 µM
14,CCCn1c(=O)c2ccccc2n2c(SCC(=O)/C(C#N)=C(\C)N)nnc12,"inconclusive: 11.7 µM [inhibitor, partial curve, poor fit]"
15,NNC(=O)c1csc(COc2cc(Cl)cc(Cl)c2)n1,inactive
16,COc1ccc(C(=O)NC2(C(F)(F)F)C(=O)N(Cc3ccco3)C3=C2C(=O)CC(C)(C)C3)cc1OC (configuration not stated),"inconclusive: 9.28 µM [inhibitor, single point]"
17,CCN(CCCCCN(C)C)Cc1cc2ccccc2o1,active: 5.22 µM
18,O=C(CSc1ccc(F)cc1)NNC(=O)c1ccccc1Br,"inconclusive: 2.62 µM [inhibitor, partial curve, poor fit]"
19,CCN(C(=O)CCc1nnc2ccc(NCc3ccco3)nn12)c1ccccc1,"inconclusive: 18.5 µM [inhibitor, partial curve, poor fit]"
20,CC(C)c1nc(CN2CCCCC2)cc(=O)[nH]1,inactive
21,Cc1cc(C)cc(NCc2cc(=O)oc3cc(-c4ccccc4)c(O)cc23)c1,active: 2.33 µM

# Of the compounds above, 4 have a furan ring, fused or not.
row,Structure (SMILES),Potency
21,O=C(NCCN1CCOCC1)c1cc2ccccc2o1,"inconclusive: 11.7 µM [inhibitor, single point]"
16,COc1ccc(C(=O)NC2(C(F)(F)F)C(=O)N(Cc3ccco3)C3=C2C(=O)CC(C)(C)C3)cc1OC (configuration not stated),"inconclusive: 9.28 µM [inhibitor, single point]"
17,CCN(CCCCCN(C)C)Cc1cc2ccccc2o1,active: 5.22 µM
19,CCN(C(=O)CCc1nnc2ccc(NCc3ccco3)nn12)c1ccccc1,"inconclusive: 18.5 µM [inhibitor, partial curve, poor fit]"
